Data published in publication doi:10.1101/093377.
No constants are given. Whether binding was seen depends on the method and setting.

Target: Peptide LW21
Assay: FRET or BRET

binding: no binding
Binder: GLLDSKKWWLLLLLLLLALLLLLLLLWWKKFSRS [Peptide LW21]
